Record: PubChem BioAssay AID504791 (Drosophila RNAi Screening Center, 2011)
The screen tested about 23,000 reagents; below is a random part of those that have a named target and a result. Of all reagents, 199 (0.86%) are marked active. 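Plate-scaled ratios behind the calls are not deposited; printed light signals are raw; many rows marked increased or decreased are still called inactive.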 The numbers tell different reagents against one gene apart. A plus sign joins genes that one reagent is predicted to hit. Not stated in the record: the direction of the score.

- Test: 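Genes whose knock-down strengthens or weakens small-RNA reporter silencing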 (primary screen)
- System: Drosophila S2-derived reporter cells
- Knock-down reagent: long dsRNA against Drosophila genes, about 150-250 ng dsRNA per well (siRNA assay); about 80-120 ng (miRNA assay)
- Time to read-out: about 5 days (siRNA assay); about 4 days (miRNA assay)
- Treatment: copper sulfate induction of reporters: 25 µM (siRNA assay); 200 mM stated (miRNA assay), 1-2 days before reading
- Read-out: 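Per-well ratio of Renilla over firefly light, expressed relative to that plate's average ratio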
- Call rule: 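First-pass picks had plate-scaled ratios over 1.5 for the siRNA assay, over 1.6 for the miRNA assay, or under 0.6; two distinct dsRNAs had to score alike on retest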

target gene | reagent | stable siRNA reporter change | stable assay Renilla, run 1 (luminescence) | stable assay firefly, run 1 (luminescence) | outcome
CG7215 + Prx5 | 1 | – | 8790 | 5.34e5 | inactive
CG7215 + Prx5 | 2 | – | 11391 | 4.93e5 | inactive
CG6106 (GeneID 32816) | 1 | – | 3671 | 2.67e5 | inactive
lncRNA:CR42646 (GeneID 10178834) | 1 | – | 4275 | 3.44e5 | inactive
Shaw (GeneID 33599) | 1 | – | 7195 | 4.49e5 | inactive
Shaw (GeneID 33599) | 2 | – | 4092 | 4.41e5 | inactive
Shaw (GeneID 33599) | 3 | – | 9043 | 4.96e5 | inactive
TwdlS (GeneID 43209) | 1 | – | 6595 | 3.35e5 | inactive
Myo10A (GeneID 32028) | 1 | – | 6686 | 6.95e5 | inactive
Myo10A (GeneID 32028) | 2 | – | 5323 | 4.24e5 | inactive
CG33969 + fbl | 1 | – | 6891 | 3.51e5 | inactive
CG11808 (GeneID 36687) | 1 | – | 12512 | 4.90e5 | inactive
CG32032 (GeneID 192535) | 1 | – | 5872 | 3.48e5 | inactive
CG15385 (GeneID 33396) | 1 | – | 7406 | 3.53e5 | inactive
RpL26 (GeneID 40060) | 1 | – | 7842 | 3.44e5 | inactive
dare (GeneID 36203) | 1 | – | 8477 | 5.83e5 | inactive
Mi-2 (GeneID 40170) | 1 | – | 4892 | 3.55e5 | inactive
CG31300 (GeneID 326132) | 1 | – | 6910 | 2.83e5 | inactive
CG34428 (GeneID 5740867) | 1 | – | 5854 | 3.29e5 | inactive
lectin-21Ca (GeneID 53552) | 1 | – | 7575 | 3.86e5 | inactive
RhoGDI (GeneID 40179) | 1 | – | 7819 | 4.00e5 | inactive
Mp20 (GeneID 36468) | 1 | – | 5770 | 2.94e5 | inactive
CG4199 (GeneID 31174) | 1 | – | 9737 | 6.94e5 | inactive
CG4199 (GeneID 31174) | 2 | – | 9262 | 4.85e5 | inactive
CG13157 (GeneID 36355) | 1 | – | 6484 | 3.71e5 | inactive
CG12860 (GeneID 36629) | 1 | – | 6294 | 3.06e5 | inactive
CG12744 (GeneID 36024) | 1 | – | 11343 | 4.63e5 | inactive
CG34338 (GeneID 5740687) | 1 | – | 6051 | 3.78e5 | inactive
CG10031 (GeneID 33594) | 1 | – | 7518 | 4.23e5 | inactive
CG17472 (GeneID 35320) | 1 | – | 7921 | 5.67e5 | inactive
Pyroxd1 (GeneID 35296) | 1 | – | 7079 | 4.58e5 | inactive
CYLD (GeneID 34380) | 1 | – | 7775 | 3.40e5 | inactive
Vha68-2 (GeneID 45012) | 1 | – | 7432 | 4.30e5 | inactive
luna (GeneID 2768719) | 1 | – | 6535 | 3.31e5 | inactive
luna (GeneID 2768719) | 2 | reporter ratio raised past the hit cutoff | 6019 | 1.95e5 | inactive
luna (GeneID 2768719) | 3 | – | 4807 | 4.07e5 | inactive
shf (GeneID 31617) | 1 | – | 5547 | 3.61e5 | inactive
trc (GeneID 40165) | 1 | – | 7246 | 4.83e5 | inactive
CG13585 (GeneID 37918) | 1 | – | 6136 | 3.89e5 | inactive
AstA-R1 (GeneID 44126) | 1 | – | 8083 | 3.50e5 | inactive
AstA-R1 (GeneID 44126) | 2 | reporter ratio lowered past the hit cutoff | 5444 | 5.02e5 | inactive
CG30095 (GeneID 246453) | 1 | – | 7110 | 3.86e5 | inactive
FASN1 (GeneID 33524) | 1 | – | 26666 | 2.57e5 | inactive
Pi4KIIalpha (GeneID 40670) | 1 | – | 7758 | 4.33e5 | inactive
Pi4KIIalpha (GeneID 40670) | 2 | – | 5951 | 3.90e5 | inactive
Taf5 (GeneID 47900) | 1 | – | 6838 | 4.37e5 | inactive
CG32639 (GeneID 318134) | 1 | – | 5574 | 4.01e5 | inactive
MICU1 (GeneID 33999) | 1 | – | 8857 | 3.03e5 | inactive
RhoGEF64C (GeneID 38578) | 1 | – | 7574 | 2.99e5 | inactive
RhoGEF64C (GeneID 38578) | 2 | – | 5648 | 3.32e5 | inactive
Pmm2 (GeneID 39436) | 1 | – | 6482 | 4.77e5 | inactive
Osi20 (GeneID 40777) | 1 | – | 6538 | 3.75e5 | inactive
CG1598 (GeneID 35690) | 1 | – | 5502 | 3.11e5 | inactive
CG14965 (GeneID 38388) | 1 | – | 7130 | 3.86e5 | inactive
e (GeneID 42521) | 1 | – | 10132 | 3.47e5 | inactive
CG34198 (GeneID 5740481) | 1 | – | 5480 | 3.46e5 | inactive
Jon66Cii (GeneID 38953) | 1 | – | 6528 | 4.27e5 | inactive
